From the supplement of paper PMC4604168 (melanoma cell lines)
This is one part of the list. Repeats are few or missing, and single values can be far off.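 The apoptosis fraction was the count of cleaved-PARP antibody-stained nuclei relative to all DNA-stained nuclei, imaged in 1,536-well plates. Screening doses were set so most cells survived, and baseline and induced cleaved-PARP levels vary greatly across cell lines.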

Columns and labels:
Assay in all cases: cleaved PARP positive nuclei fraction relative to DMSO control; melanoma cells; higher = more apoptosis
Conditions in all cases: library dose: low library concentration; 72 h
MZ2-MEL = system: MZ2-MEL
MeWo = system: MeWo
RPMI7951 = system: RPMI7951
RVH-421 = system: RVH-421
SkMel28 = system: SkMel28
SkMel2 = system: SkMel2
SkMel30 = system: SkMel30
SkMel5 = system: SkMel5
UACC257 = system: UACC257
UACC62 = system: UACC62

| Structure (SMILES) | cleaved PARP positive nuclei fraction (MZ2-MEL) | cleaved PARP positive nuclei fraction (MeWo) | cleaved PARP positive nuclei fraction (RPMI7951) | cleaved PARP positive nuclei fraction (RVH-421) | cleaved PARP positive nuclei fraction (SkMel28) | cleaved PARP positive nuclei fraction (SkMel2) | cleaved PARP positive nuclei fraction (SkMel30) | cleaved PARP positive nuclei fraction (SkMel5) | cleaved PARP positive nuclei fraction (UACC257) | cleaved PARP positive nuclei fraction (UACC62) |
| --- | --- | --- | --- | --- | --- | --- | --- | --- | --- | --- |
| CCCCCCCCc1ccc(CCC(N)(CO)CO)cc1 [fingolimod] + N#Cc1c(O)c2c(-c3ccc(-c4ccccc4O)cc3)csc2[nH]c1=O [A769662] (first compound 2 µM, partner dose 2 µM) | 263% | 29.5% | 146% | 225% | 59.9% | 171% | 577% | 140% | 118% | 137% |
| CCN(CC)CCNC(=O)c1c(C)[nH]c(/C=C2\C(=O)Nc3ccc(F)cc32)c1C [sunitinib] + c1cc(-c2cnn3cc(-c4ccc(OCCN5CCCCC5)cc4)cnc23)ccn1 [Dorsomorphin] (first compound 0.4 µM, partner dose 0.4 µM) | 88.1% | 152% | 57.9% | 135% | 151% | 53.4% | 252% | 76.6% | 49.7% | 145% |
| Cn1cnc2c(F)c(Nc3ccc(Br)cc3Cl)c(C(=O)NOCCO)cc21 [selumetinib] + Oc1cc(-c2nc(-c3ccccc3)[nH]c2-c2ccncc2)ccc1Cl [L779450] (first compound 0.015 µM, partner dose 0.2 µM) | 45% | 66.4% | 79.1% | 114% | 440% | 299% | 44.5% | 82.2% | 61.7% | 186% |
| CCCCCCCCc1ccc(CCC(N)(CO)CO)cc1 [fingolimod] + CN(C)S(=O)(=O)c1ccc2c(c1)/C(=C/c1cc3c([nH]1)CCCC3)C(=O)N2 [SU6656] (first compound 2 µM, partner dose 0.4 µM) | 39.2% | 193% | 238% | 102% | 128% | 46.7% | 65.2% | 68.5% | 41.1% | 125% |
| CN(c1ncccc1CNc1nc(Nc2ccc3c(c2)CC(=O)N3)ncc1C(F)(F)F)S(C)(=O)=O + C=CCn1c(=O)c2cnc(Nc3ccc(N4CCN(C)CC4)cc3)nc2n1-c1cccc(C(C)(C)O)n1 [MK1775] (first compound 0.08 µM, partner dose 0.02 µM) | 177% | 85.8% | 86% | 97.6% | 276% | 133% | 45.1% | 92.6% | 147% | 92.7% |
| CC1(C)CCC(c2ccc(Cl)cc2)=C(CN2CCN(c3ccc(C(=O)NS(=O)(=O)c4ccc(N[C@H](CCN5CCOCC5)CSc5ccccc5)c(S(=O)(=O)C(F)(F)F)c4)cc3)CC2)C1 + Oc1cc(-c2nc(-c3ccccc3)[nH]c2-c2ccncc2)ccc1Cl [L779450] (first compound 0.4 µM, partner dose 0.2 µM) | 304% | 213% | 251% | 405% | 348% | 157% | 96.9% | 126% | 160% | 222% |
| CCN(CC)CCNC(=O)c1c(C)[nH]c(/C=C2\C(=O)Nc3ccc(F)cc32)c1C [sunitinib] + CC(C)CCN1c2nc(Nc3cc(F)c(O)c(F)c3)ncc2N(C)C(=O)C1C [BID1870] (first compound 0.4 µM, partner dose 0.2 µM) | 185% | 122% | 145% | 29.7% | 204% | 101% | 114% | 36.4% | 128% | 184% |
| CN(c1ncccc1CNc1nc(Nc2ccc3c(c2)CC(=O)N3)ncc1C(F)(F)F)S(C)(=O)=O + CCc1ccc(CCOc2ccc(CC3SC(=O)NC3=O)cc2)nc1 [pioglitazone] (first compound 0.08 µM, partner dose 2 µM) | 138% | 105% | 41.2% | 84.3% | 163% | 177% | 128% | 106% | 135% | 543% |
| CC1(C)CCC(c2ccc(Cl)cc2)=C(CN2CCN(c3ccc(C(=O)NS(=O)(=O)c4ccc(N[C@H](CCN5CCOCC5)CSc5ccccc5)c(S(=O)(=O)C(F)(F)F)c4)cc3)CC2)C1 + COc1cc2ncnc(Nc3ccc(Oc4ccccc4)cc3)c2cc1OC [SrcI1] (first compound 0.4 µM, partner dose 2 µM) | 144% | 289% | 85.6% | 319% | 179% | 173% | 131% | 96.2% | 143% | 242% |
| CN(c1ncccc1CNc1nc(Nc2ccc3c(c2)CC(=O)N3)ncc1C(F)(F)F)S(C)(=O)=O + CN(NC(=O)CC(=O)NN(C)C(=S)c1ccccc1)C(=S)c1ccccc1 [STA4783] (first compound 0.08 µM, partner dose 0.006 µM) | 100% | 99.6% | 109% | 75.1% | 256% | 75.9% | 64.5% | 695% | 74.3% | 234% |
| CC(=O)O[C@@]12CO[C@@H]1C[C@H](O)[C@@]1(C)C(=O)[C@H](O)C3=C(C)[C@@H](OC(=O)[C@H](O)[C@@H](NC(=O)OC(C)(C)C)c4ccccc4)C[C@@](O)([C@@H](OC(=O)c4ccccc4)[C@H]21)C3(C)C [Docetaxel] + CC1(C)NC(=O)N(c2ccc([N+](=O)[O-])c(C(F)(F)F)c2)C1=O [nilutamide] (first compound 0.0001 µM, partner dose 1 µM) | 521% | 926% | 238% | 59.9% | 422% | 718% | 216% | 119% | 555% | 463% |
| C[C@@H](N)c1ccc(C(=O)Nc2ccnc3[nH]ccc23)cc1 + Oc1nc(-c2ccc(C(F)(F)F)cc2)nc2c1CSCC2 [XAV939] (first compound 0.4 µM, partner dose 2 µM) | 175% | 110% | 153% | 394% | 325% | 79.2% | 44% | 176% | 180% | 188% |
| CCN(CC)CCNC(=O)c1c(C)[nH]c(/C=C2\C(=O)Nc3ccc(F)cc32)c1C [sunitinib] + COc1cc2c(Oc3ccc4[nH]c(C)cc4c3F)ncnc2cc1OCCCN1CCCC1 [cediranib] (first compound 0.4 µM, partner dose 0.4 µM) | 20.2% | 71.3% | 160% | 29.6% | 601% | 59% | 79.8% | 128% | 117% | 51.3% |
| CS(=O)(=O)c1ccc(C(=O)Nc2ccc(Cl)c(-c3ccccn3)c2)c(Cl)c1 [vismodegib] + Cc1cc([N+](=O)[O-])ccc1NS(=O)(=O)c1cc(Cl)ccc1Cl [FH535] (first compound 1 µM, partner dose 1 µM) | 85.8% | 118% | 98.9% | 92.4% | 109% | 69.1% | 70.8% | 87.7% | 135% | 72.2% |
| CCN(CC)CCNC(=O)c1c(C)[nH]c(/C=C2\C(=O)Nc3ccc(F)cc32)c1C [sunitinib] + Oc1cc(-c2nc(-c3ccccc3)[nH]c2-c2ccncc2)ccc1Cl [L779450] (first compound 0.4 µM, partner dose 0.2 µM) | 112% | 98.5% | 45.3% | 42.3% | 171% | 210% | 59% | 68% | 153% | 156% |
| CC1(C)CCC(c2ccc(Cl)cc2)=C(CN2CCN(c3ccc(C(=O)NS(=O)(=O)c4ccc(N[C@H](CCN5CCOCC5)CSc5ccccc5)c(S(=O)(=O)C(F)(F)F)c4)cc3)CC2)C1 + O=C(O)C(=O)Nc1sc2c(c1C(=O)O)CCNC2 [TCS401] (first compound 0.4 µM, partner dose 1.66667 µM) | 355% | 166% | 113% | 251% | 53.8% | 168% | 153% | 234% | 47.7% | 99.6% |
| CN(c1ncccc1CNc1nc(Nc2ccc3c(c2)CC(=O)N3)ncc1C(F)(F)F)S(C)(=O)=O + Cn1cc(/C=C2\C(=O)Nc3cccnc32)c2ccccc21 [GW441756] (first compound 0.08 µM, partner dose 0.4 µM) | 55.5% | 123% | 121% | 118% | 232% | 37.9% | 101% | 99.3% | 111% | 164% |
| C[C@@H](N)c1ccc(C(=O)Nc2ccnc3[nH]ccc23)cc1 + CCc1ccc(CCOc2ccc(CC3SC(=O)NC3=O)cc2)nc1 [pioglitazone] (first compound 0.4 µM, partner dose 2 µM) | 115% | 124% | 96.8% | 126% | 220% | 125% | 273% | 87.5% | 76.8% | 130% |
| Cn1sc(=O)n(Cc2ccccc2)c1=O + OCCn1cc(-c2cnc3nnn(Cc4ccc5ncccc5c4)c3n2)cn1 [PF04217903] (first compound 0.4 µM, partner dose 1 µM) | 78.2% | 242% | 138% | 162% | 120% | 95.1% | 58.3% | 172% | 99.3% | 250% |
| CCN(CC)CCNC(=O)c1c(C)[nH]c(/C=C2\C(=O)Nc3ccc(F)cc32)c1C [sunitinib] + CC(C)(C)c1cnc(CSc2cnc(NC(=O)C3CCNCC3)s2)o1 [SNS-032] (first compound 0.4 µM, partner dose 0.01 µM) | 132% | 81.2% | 120% | 108% | 67.2% | 151% | 90.2% | 181% | 241% | 339% |
| CC1(C)CCC(c2ccc(Cl)cc2)=C(CN2CCN(c3ccc(C(=O)NS(=O)(=O)c4ccc(N[C@H](CCN5CCOCC5)CSc5ccccc5)c(S(=O)(=O)C(F)(F)F)c4)cc3)CC2)C1 + NC(=O)Nc1cc(-c2cccc(F)c2)sc1C(=O)N[C@H]1CCCNC1 [AZD7762] (first compound 0.4 µM, partner dose 0.02 µM) | 324% | 121% | 228% | 55.5% | 124% | 178% | 93.7% | 420% | 601% | 132% |

Part of the list above, with tabs:
Structure (SMILES)	cleaved PARP positive nuclei fraction (MZ2-MEL)	cleaved PARP positive nuclei fraction (MeWo)	cleaved PARP positive nuclei fraction (RPMI7951)	cleaved PARP positive nuclei fraction (RVH-421)	cleaved PARP positive nuclei fraction (SkMel28)	cleaved PARP positive nuclei fraction (SkMel2)	cleaved PARP positive nuclei fraction (SkMel30)	cleaved PARP positive nuclei fraction (SkMel5)	cleaved PARP positive nuclei fraction (UACC257)	cleaved PARP positive nuclei fraction (UACC62)
CN(c1ncccc1CNc1nc(Nc2ccc3c(c2)CC(=O)N3)ncc1C(F)(F)F)S(C)(=O)=O + CN(NC(=O)CC(=O)NN(C)C(=S)c1ccccc1)C(=S)c1ccccc1 [STA4783] (first compound 0.08 µM, partner dose 0.006 µM)	100%	99.6%	109%	75.1%	256%	75.9%	64.5%	695%	74.3%	234%
C[C@@H](N)c1ccc(C(=O)Nc2ccnc3[nH]ccc23)cc1 + Oc1nc(-c2ccc(C(F)(F)F)cc2)nc2c1CSCC2 [XAV939] (first compound 0.4 µM, partner dose 2 µM)	175%	110%	153%	394%	325%	79.2%	44%	176%	180%	188%
